Experimental data: publication PMC10682013
No constants are given. Whether binding was seen depends on the method and setting. In cells and extracts the contact can be indirect. Some results given as binding are weak or reduced against the parent protein; the word gives no strength.

The chains behind the UniProt entries cited, without tags or fusion partners.
UniProt P52732: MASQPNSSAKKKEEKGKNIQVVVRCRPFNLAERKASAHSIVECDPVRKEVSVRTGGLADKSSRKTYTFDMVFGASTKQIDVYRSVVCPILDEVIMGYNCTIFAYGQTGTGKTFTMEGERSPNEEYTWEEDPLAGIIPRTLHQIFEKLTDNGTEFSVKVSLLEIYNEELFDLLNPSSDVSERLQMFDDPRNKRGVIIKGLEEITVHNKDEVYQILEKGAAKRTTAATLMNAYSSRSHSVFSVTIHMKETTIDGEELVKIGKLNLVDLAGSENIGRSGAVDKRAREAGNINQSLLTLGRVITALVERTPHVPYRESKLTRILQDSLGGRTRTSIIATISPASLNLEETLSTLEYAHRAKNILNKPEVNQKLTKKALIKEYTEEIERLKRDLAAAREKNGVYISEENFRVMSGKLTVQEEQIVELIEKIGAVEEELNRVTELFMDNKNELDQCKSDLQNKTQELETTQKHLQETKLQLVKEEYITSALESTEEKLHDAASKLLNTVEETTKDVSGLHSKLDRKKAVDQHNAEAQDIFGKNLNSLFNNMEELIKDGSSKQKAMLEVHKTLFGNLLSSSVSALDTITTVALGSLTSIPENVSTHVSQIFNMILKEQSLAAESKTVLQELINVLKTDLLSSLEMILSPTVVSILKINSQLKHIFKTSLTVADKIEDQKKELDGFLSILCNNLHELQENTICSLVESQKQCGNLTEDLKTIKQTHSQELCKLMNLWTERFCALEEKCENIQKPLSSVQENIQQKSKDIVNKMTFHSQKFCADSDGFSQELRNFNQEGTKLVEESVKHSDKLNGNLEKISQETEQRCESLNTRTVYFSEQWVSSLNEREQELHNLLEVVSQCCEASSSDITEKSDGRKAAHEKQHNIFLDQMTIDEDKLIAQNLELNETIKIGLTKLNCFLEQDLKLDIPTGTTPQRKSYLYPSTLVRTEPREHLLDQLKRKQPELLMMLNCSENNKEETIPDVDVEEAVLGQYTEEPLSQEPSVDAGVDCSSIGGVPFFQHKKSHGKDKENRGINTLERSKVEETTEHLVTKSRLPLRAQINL

Experiments:
[1] = target: 3×Flag-TACC3 (Transforming acidic coiled-coil-containing protein 3) (UniProt Q9Y6A5); assay: co-IP; 3×Flag-tagged bait expressed in HEK293T cells; whole cell lysate; precipitated with anti-3×Flag IgG, normal IgG as negative control; Western blotting of input and precipitates
[2] = target: 3×Flag-KIF11 (Kinesin Family Member 11) (UniProt P52732); assay: as above

Row | binding [1] | binding [2] | Substance
1 | binds |  | Kinesin Family Member 11 (KIF11), endogenous (from UniProt P52732 1-1056)
2 |  | binds | Transforming acidic coiled-coil-containing protein 3 (TACC3), endogenous (from UniProt Q9Y6A5 1-838)
